Measurements from the supplement of paper PMC10849652.
The list shows a part of the results.

Sequences of proteins named here, by UniProt entry; tags and fusion partners are left off. A change or cut given only in a name is not applied to a line headed by its entry.
UniProt Q9NWY4: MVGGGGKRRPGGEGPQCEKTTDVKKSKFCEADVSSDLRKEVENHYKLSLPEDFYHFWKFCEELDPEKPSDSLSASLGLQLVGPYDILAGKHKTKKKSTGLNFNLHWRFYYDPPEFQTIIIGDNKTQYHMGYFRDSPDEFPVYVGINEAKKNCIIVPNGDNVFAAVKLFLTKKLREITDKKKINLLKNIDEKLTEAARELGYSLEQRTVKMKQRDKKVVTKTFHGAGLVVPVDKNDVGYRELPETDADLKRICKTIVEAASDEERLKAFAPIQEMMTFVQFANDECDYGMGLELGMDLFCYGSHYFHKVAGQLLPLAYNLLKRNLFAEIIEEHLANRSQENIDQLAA
UniProt Q8WVV9: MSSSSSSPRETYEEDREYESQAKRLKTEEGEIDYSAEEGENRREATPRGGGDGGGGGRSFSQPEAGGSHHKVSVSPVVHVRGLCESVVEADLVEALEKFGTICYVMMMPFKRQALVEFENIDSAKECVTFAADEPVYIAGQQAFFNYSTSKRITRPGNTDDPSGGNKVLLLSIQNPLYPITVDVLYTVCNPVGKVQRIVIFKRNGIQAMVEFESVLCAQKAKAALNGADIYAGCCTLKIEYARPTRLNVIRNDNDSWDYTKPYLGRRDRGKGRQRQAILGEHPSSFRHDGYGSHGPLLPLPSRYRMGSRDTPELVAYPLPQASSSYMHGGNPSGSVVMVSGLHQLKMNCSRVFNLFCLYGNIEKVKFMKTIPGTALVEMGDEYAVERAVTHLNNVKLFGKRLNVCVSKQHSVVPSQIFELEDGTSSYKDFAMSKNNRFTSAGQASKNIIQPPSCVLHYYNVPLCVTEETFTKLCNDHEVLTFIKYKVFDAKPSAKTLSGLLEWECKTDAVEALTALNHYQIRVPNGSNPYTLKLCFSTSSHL
UniProt Q9BX68: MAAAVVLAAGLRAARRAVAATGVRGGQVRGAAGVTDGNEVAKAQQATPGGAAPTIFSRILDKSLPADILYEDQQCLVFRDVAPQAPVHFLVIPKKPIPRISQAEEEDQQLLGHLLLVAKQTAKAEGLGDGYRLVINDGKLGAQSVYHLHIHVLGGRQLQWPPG
UniProt O94992, whole entry, looked up: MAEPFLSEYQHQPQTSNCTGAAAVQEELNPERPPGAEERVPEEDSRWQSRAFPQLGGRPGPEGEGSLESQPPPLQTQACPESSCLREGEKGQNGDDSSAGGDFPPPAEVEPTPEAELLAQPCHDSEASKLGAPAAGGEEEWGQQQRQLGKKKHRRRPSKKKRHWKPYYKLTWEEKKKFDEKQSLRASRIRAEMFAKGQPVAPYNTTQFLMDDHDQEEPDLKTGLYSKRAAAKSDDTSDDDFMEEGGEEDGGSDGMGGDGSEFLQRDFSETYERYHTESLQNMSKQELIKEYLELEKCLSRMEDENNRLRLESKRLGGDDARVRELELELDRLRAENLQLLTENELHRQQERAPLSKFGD
UniProt Q5GLZ8: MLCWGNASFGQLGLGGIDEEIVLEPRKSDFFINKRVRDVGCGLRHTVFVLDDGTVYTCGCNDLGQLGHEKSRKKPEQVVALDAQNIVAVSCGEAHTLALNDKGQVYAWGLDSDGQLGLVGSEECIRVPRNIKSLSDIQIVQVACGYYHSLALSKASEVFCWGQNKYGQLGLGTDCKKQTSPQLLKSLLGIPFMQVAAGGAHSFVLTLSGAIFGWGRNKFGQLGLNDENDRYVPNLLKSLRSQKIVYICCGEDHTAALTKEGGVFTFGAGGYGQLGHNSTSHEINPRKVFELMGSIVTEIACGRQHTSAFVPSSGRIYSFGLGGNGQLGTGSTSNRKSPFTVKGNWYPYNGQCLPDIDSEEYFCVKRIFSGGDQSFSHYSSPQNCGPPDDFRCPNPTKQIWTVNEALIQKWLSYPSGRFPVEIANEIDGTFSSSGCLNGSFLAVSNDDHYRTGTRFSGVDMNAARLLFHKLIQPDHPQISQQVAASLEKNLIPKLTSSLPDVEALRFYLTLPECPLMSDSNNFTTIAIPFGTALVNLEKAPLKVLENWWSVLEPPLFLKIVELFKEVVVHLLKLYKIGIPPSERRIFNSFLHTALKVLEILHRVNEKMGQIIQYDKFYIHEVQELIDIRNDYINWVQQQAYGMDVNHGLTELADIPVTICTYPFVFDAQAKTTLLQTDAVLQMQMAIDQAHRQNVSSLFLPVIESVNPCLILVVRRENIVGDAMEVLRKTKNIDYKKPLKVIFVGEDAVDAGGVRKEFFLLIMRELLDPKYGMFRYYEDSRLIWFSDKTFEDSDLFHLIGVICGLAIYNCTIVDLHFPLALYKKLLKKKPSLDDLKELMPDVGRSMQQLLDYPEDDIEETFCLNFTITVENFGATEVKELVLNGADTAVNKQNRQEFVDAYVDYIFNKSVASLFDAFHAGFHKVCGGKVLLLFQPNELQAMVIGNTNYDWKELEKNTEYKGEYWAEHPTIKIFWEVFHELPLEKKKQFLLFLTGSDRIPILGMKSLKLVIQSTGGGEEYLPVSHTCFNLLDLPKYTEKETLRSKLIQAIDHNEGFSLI
UniProt Q9BTY7: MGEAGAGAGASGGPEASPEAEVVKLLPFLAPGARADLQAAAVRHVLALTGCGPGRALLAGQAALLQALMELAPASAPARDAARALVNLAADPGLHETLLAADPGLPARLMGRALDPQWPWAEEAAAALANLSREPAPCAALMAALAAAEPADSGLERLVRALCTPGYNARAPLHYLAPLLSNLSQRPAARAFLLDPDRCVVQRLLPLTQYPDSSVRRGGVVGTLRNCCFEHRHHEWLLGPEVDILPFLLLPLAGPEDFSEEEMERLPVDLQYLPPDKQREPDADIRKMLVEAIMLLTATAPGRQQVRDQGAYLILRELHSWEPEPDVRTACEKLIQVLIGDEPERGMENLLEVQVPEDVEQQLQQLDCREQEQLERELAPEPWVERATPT
UniProt P52789: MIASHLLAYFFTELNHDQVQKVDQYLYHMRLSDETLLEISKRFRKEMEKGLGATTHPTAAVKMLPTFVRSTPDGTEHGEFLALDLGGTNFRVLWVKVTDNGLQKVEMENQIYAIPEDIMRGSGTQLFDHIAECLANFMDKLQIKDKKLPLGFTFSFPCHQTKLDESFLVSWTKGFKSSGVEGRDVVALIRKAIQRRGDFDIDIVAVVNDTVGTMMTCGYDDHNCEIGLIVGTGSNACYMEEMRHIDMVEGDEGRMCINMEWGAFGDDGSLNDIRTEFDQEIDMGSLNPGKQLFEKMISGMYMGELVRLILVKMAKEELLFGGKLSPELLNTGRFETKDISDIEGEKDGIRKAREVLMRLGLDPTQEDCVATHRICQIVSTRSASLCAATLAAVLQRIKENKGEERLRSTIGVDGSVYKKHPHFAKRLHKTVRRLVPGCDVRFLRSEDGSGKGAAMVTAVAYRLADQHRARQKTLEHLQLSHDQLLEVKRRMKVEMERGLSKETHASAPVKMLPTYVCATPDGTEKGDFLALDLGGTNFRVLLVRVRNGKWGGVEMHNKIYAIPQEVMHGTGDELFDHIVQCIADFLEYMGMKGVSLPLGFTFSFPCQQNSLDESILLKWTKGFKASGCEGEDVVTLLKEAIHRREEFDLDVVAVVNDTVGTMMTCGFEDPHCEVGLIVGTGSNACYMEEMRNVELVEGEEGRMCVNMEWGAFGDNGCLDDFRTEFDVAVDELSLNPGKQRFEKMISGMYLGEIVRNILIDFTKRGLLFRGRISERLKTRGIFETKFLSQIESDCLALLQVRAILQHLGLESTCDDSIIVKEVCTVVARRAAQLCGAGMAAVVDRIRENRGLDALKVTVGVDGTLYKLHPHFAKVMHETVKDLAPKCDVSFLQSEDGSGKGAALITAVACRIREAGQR
UniProt P09651: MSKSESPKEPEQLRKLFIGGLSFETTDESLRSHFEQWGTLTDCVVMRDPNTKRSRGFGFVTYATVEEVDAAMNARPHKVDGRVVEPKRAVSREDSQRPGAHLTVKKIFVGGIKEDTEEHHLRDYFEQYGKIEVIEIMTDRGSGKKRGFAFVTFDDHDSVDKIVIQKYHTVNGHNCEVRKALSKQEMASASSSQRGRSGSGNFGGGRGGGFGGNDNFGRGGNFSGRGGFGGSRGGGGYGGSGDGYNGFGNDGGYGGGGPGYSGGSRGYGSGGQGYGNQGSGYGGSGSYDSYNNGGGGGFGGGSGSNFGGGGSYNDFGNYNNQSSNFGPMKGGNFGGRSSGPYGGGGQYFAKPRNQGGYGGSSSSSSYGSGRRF
UniProt Q8NBQ5: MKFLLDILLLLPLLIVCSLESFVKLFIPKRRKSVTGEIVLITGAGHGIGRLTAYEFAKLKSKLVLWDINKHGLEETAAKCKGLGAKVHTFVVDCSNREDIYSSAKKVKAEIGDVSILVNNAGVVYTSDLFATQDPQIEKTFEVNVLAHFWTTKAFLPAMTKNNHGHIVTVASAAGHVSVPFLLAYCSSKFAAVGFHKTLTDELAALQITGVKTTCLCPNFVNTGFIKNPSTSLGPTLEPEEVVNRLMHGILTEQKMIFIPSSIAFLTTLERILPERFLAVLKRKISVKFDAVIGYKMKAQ
UniProt Q96FZ2: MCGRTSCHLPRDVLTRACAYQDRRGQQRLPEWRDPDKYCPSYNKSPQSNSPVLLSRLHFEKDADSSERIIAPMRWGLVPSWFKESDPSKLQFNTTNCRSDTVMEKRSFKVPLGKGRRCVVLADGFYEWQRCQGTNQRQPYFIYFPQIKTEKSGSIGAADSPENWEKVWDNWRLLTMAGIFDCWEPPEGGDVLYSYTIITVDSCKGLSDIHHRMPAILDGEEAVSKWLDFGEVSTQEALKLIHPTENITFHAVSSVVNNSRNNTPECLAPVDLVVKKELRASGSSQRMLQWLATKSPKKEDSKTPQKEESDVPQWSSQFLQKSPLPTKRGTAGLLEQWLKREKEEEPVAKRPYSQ
UniProt O75330: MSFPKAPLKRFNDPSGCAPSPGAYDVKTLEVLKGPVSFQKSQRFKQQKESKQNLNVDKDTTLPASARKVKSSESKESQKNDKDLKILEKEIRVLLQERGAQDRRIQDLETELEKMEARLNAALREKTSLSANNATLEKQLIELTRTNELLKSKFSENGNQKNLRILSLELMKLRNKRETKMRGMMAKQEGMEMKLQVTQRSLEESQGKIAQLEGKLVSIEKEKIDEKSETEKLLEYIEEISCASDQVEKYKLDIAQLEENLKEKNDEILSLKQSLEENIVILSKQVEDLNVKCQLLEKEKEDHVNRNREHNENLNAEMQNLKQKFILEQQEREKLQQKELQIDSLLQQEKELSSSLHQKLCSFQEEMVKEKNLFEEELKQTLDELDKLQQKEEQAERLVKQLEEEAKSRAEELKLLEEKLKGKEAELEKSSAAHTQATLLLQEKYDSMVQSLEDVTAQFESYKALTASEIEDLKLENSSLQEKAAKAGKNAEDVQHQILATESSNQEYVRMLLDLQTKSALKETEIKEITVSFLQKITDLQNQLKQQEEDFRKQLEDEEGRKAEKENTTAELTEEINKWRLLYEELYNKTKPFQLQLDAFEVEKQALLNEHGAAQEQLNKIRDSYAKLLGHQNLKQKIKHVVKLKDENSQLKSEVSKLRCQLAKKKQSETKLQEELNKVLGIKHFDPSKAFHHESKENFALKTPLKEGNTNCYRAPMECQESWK
UniProt Q13151: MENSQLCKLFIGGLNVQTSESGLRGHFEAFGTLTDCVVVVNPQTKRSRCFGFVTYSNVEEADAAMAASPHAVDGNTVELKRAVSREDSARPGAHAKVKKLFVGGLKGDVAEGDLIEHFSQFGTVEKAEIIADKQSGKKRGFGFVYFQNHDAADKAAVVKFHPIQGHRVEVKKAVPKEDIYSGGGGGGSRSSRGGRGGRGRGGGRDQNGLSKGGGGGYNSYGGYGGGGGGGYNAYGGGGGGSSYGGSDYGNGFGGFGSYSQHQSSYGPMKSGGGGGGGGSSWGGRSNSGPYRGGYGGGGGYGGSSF
UniProt Q5SSJ5: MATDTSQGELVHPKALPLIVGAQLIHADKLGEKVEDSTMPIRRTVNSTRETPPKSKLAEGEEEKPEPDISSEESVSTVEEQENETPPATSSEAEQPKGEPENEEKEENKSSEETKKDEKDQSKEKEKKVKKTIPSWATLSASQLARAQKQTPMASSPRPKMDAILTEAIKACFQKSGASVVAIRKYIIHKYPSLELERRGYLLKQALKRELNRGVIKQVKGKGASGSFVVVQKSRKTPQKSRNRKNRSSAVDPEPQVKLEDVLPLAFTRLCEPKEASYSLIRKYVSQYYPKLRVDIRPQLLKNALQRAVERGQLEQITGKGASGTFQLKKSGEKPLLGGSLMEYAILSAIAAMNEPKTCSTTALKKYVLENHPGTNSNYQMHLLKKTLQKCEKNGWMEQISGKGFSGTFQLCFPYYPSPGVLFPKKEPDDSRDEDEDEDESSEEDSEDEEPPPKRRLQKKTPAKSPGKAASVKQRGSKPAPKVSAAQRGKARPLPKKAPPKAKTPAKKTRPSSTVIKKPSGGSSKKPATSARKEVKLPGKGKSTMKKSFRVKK

What was measured:
Assay in all cases: log2 fold change, soluble protein after heating vs DMSO (PISA); higher = thermal stabilisation; K562 lysate, 10 uM; active = over 0.2 and 3.5 SD of the protein, either way, in both replicates (recomputed)
ibrutinib = compound: C=CC(=O)N1CCC[C@@H](n2nc(-c3ccc(Oc4ccccc4)cc3)c3c(N)ncnc32)C1 [ibrutinib]
In short: (§1)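 To prepare the extract, K562 pellets were dounce-homogenised in PBS pH 7.4 with 1 mM MgCl2, giving crude material at 1 mg/mL protein. This was treated with 10 μM compound for 30 min, then heated in aliquots for 3 min over 48°C-58°C before pooling and addition of NP-40 to 0.5% at 4°C. Centrifugation at 21,000xg for 90 min left soluble protein in the supernatant, which TMTpro 16plex LC-MS/MS quantified with equalised channel sums. Results are log-two fold changes in thermal stability compared with solvent controls, from duplicates.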

[1] = compound: CC(=O)c1cnc2ccc(-c3cc(Cl)c(O)c(Cl)c3)nc2c1N[C@H]1CC[C@H](CN(C)C)CC1
In short: as §1

ralimetinib = compound: CC(C)(C)Cn1c(N)nc2ccc(-c3[nH]c(C(C)(C)C)nc3-c3ccc(F)cc3)nc21 [ralimetinib]
In short: as §1

[2] = compound: CC(C)(O)CC(=O)NCCn1ccc2ncnc(Nc3ccc(Oc4cccc(C(F)(F)F)c4)c(Cl)c3)c21
In short: as §1

[3] = compound: CC(C)C1=C2N=C(C=C(N2N=C1)NCC3=CC=CC=C3)NCCCCCCN
In short: as §1

[4] = compound: CC1=C(C(CC(=O)N1)C2=CC=C(C=C2)C(F)(F)F)C(=O)NC3=C(C=C4C(=C3)C=NN4)F
In short: as §1

[5] = compound: CC1=C(C2=C(C=C1)C(=O)C3=CC=CC=C3N2CCCN)C
In short: as §1

[6] = compound: CC1=C(C=C(C=C1)NC(=O)C2=CC(=CC=C2)C(C)(C)C#N)NC3=CC4=C(C=C3)N=CN(C4=O)C
In short: as §1

[7] = compound: CC1=C(C=C(C=C1)NC(=O)C2=CC(=CC=C2)N(C)C)NC(=O)C3=CC=C(C=C3)O
In short: as §1

[8] = compound: CC1=CC=C(C=C1)SC2=C3C=C(SC3=CN=C2)C(=O)N
In short: as §1

vemurafenib = compound: CCCS(=O)(=O)Nc1ccc(F)c(C(=O)c2c[nH]c3ncc(-c4ccc(Cl)cc4)cc23)c1F [vemurafenib]
In short: as §1

[9] = compound: CCCS(=O)(=O)Nc1ccc(F)c(C(=O)c2c[nH]c3ncc(Cl)cc23)c1F
In short: as §1

barasertib = compound: CCN(CCCOc1ccc2c(Nc3cc(CC(=O)Nc4cccc(F)c4)[nH]n3)ncnc2c1)CCOP(=O)(O)O [barasertib]
In short: as §1

[10] = compound: CC[C@@H]1C(=O)N(C)c2cnc(Nc3ccc(C(=O)NC4CCN(C)CC4)cc3OC)nc2N1C1CCCC1
In short: as §1

volasertib = compound: CC[C@@H]1C(=O)N(C)c2cnc(Nc3ccc(C(=O)N[C@H]4CC[C@H](N5CCN(CC6CC6)CC5)CC4)cc3OC)nc2N1C(C)C [volasertib]
In short: as §1

[11] = compound: CCn1c(C(=O)N(C2CC2)C2CC2)cc2c3c(ncn3C)c(Nc3cc(C)n(C)n3)nc21
In short: as §1

[12] = compound: CCn1cc(-c2ccnc3[nH]c(-c4cccc(CN(C)C)c4)cc23)c(-c2ccc(NC(=O)N(C)C)cc2)n1
In short: as §1

[13] = compound: CN1CCC(CNc2ccc3ncc(-c4cccc(OC(F)(F)F)c4)n3n2)CC1
In short: as §1

saracatinib = compound: CN1CCN(CCOc2cc(OC3CCOCC3)c3c(Nc4c(Cl)ccc5c4OCO5)ncnc3c2)CC1 [saracatinib]
In short: as §1

sotrastaurin = compound: CN1CCN(c2nc(C3=C(c4c[nH]c5ccccc45)C(=O)NC3=O)c3ccccc3n2)CC1 [sotrastaurin]
In short: as §1

Measured: log2 fold change

HPF1 (UniProt Q9NWY4)
inactive: ibrutinib -0.02 | [1] -0.028 | ralimetinib 0 | [2] 0.069 | [3] -0.018 | [4] -0.001 | [5] 0.022 | [6] -0.017 | [7] -0.007 | [8] 0 | vemurafenib 0.031 | [9] -0.033 | barasertib 0.019 | [10] -0.075 | volasertib -0.103 | [11] 0.015 | [12] -0.011 | [13] 0 | saracatinib -0.004 | sotrastaurin 0.077

HNRNPLL (UniProt Q8WVV9)
inactive: ibrutinib -0.024 | [1] 0.016 | ralimetinib 0.005 | [2] 0.005 | [3] -0.004 | [4] -0.019 | [5] -0.012 | [6] 0.026 | [7] 0.024 | [8] 0.021 | vemurafenib 0.004 | [9] 0.046 | barasertib 0.018 | [10] 0.008 | volasertib -0.027 | [11] -0.004 | [12] -0.006 | [13] -0.013 | saracatinib -0.001 | sotrastaurin 0.034

HELZ (UniProt P42694)
inactive: ibrutinib 0.01 | [1] -0.061 | ralimetinib 0.01 | [2] -0.029 | [3] 0.027 | [4] 0.05 | [5] 0.008 | [6] -0.143 | [7] -0.015 | [8] -0.019 | vemurafenib 0.019 | [9] 0.032 | barasertib 0.027 | [10] 0.042 | volasertib -0.117 | [11] 0.028 | [12] -0.099 | [13] 0.046 | saracatinib -0.001 | sotrastaurin 0.028

HINT2 (UniProt Q9BX68)
inactive: ibrutinib 0.071 | [1] -0.009 | ralimetinib 0.065 | [2] 0.001 | [3] 0 | [4] -0.054 | [5] -0.017 | [6] 0.024 | [7] -0.014 | [8] 0.077 | vemurafenib -0.078 | [9] -0.055 | barasertib 0.143 | [10] -0.066 | volasertib 0.016 | [11] 0.128 | [12] -0.055 | [13] -0.1 | saracatinib 0.03 | sotrastaurin -0.028

HEXIM1 (UniProt O94992)
inactive: ibrutinib -0.009 | [1] 0.026 | ralimetinib 0.004 | [2] -0.047 | [3] -0.077 | [4] 0.035 | [5] -0.064 | [6] -0.012 | [7] -0.019 | [8] -0.018 | vemurafenib 0.049 | [9] 0.014 | barasertib -0.007 | [10] 0.04 | volasertib 0.005 | [11] -0.007 | [12] 0.01 | [13] -0.012 | saracatinib -0.017 | sotrastaurin -0.025

HERC4 (UniProt Q5GLZ8)
inactive: ibrutinib 0.021 | [1] -0.017 | ralimetinib 0.036 | [2] 0.005 | [3] 0.012 | [4] -0.006 | [5] 0.002 | [6] 0.004 | [7] -0.004 | [8] 0.016 | vemurafenib 0.041 | [9] 0.016 | barasertib 0.01 | [10] -0.032 | volasertib -0.009 | [11] 0.01 | [12] -0.14 | [13] 0.061 | saracatinib 0.007 | sotrastaurin 0.016

HGH1 (UniProt Q9BTY7)
inactive: ibrutinib 0.052 | [1] -0.014 | ralimetinib 0.011 | [2] 0.017 | [3] -0.007 | [4] -0.024 | [5] -0.025 | [6] -0.007 | [7] 0.016 | [8] 0.062 | vemurafenib 0.027 | [9] 0.009 | barasertib 0.032 | [10] -0.031 | volasertib -0.039 | [11] 0.01 | [12] -0.05 | [13] -0.052 | saracatinib 0.016 | sotrastaurin 0.011

HK2 (UniProt P52789)
inactive: ibrutinib 0.021 | [1] -0.005 | ralimetinib 0.019 | [2] 0.006 | [3] -0.029 | [4] -0.007 | [5] 0.006 | [6] 0.008 | [7] 0.002 | [8] 0.011 | vemurafenib 0.046 | [9] 0.006 | barasertib 0.009 | [10] -0.044 | volasertib -0.049 | [11] 0.023 | [12] -0.015 | [13] -0.075 | saracatinib -0.009 | sotrastaurin 0.001

HNRNPA1 (UniProt P09651)
inactive: ibrutinib -0.013 | [1] -0.032 | ralimetinib -0.015 | [2] -0.002 | [3] -0.009 | [4] -0.029 | [5] -0.037 | [6] 0.003 | [7] -0.013 | [8] 0.03 | vemurafenib 0.015 | [9] 0.011 | barasertib 0.023 | [10] 0.01 | volasertib -0.006 | [11] 0.001 | [12] 0.193 | [13] -0.025 | saracatinib -0.002 | sotrastaurin -0.011

HSD17B11 (UniProt Q8NBQ5)
inactive: ibrutinib -0.047 | [1] 0.027 | ralimetinib 0.033 | [2] -0.034 | [3] 0.008 | [4] -0.024 | [5] 0.029 | [6] -0.012 | [7] -0.042 | [8] -0.011 | vemurafenib 0.021 | [9] -0.023 | barasertib -0.01 | [10] 0.016 | volasertib 0.024 | [11] 0.036 | [12] -0.009 | [13] 0.033 | saracatinib 0.004 | sotrastaurin 0.043

HSP90AB3P (UniProt Q58FF7)
inactive: ibrutinib 0.085 | [1] 0.023 | ralimetinib -0.013 | [2] -0.033 | [3] -0.052 | [4] 0.033 | [5] -0.052 | [6] 0.032 | [7] 0.023 | [8] -0.015 | vemurafenib -0.019 | [9] 0.043 | barasertib -0.006 | [10] 0.034 | volasertib 0.003 | [11] 0.021 | [12] 0.023 | [13] -0.021 | saracatinib -0.079 | sotrastaurin -0.012

Taken from the listing (2 entries):
HNRNPA1 (UniProt P09651)
inactive: ibrutinib -0.013 | [1] -0.032 | ralimetinib -0.015 | [2] -0.002 | [3] -0.009 | [4] -0.029 | [5] -0.037 | [6] 0.003 | [7] -0.013 | [8] 0.03 | vemurafenib 0.015 | [9] 0.011 | barasertib 0.023 | [10] 0.01 | volasertib -0.006 | [11] 0.001 | [12] 0.193 | [13] -0.025 | saracatinib -0.002 | sotrastaurin -0.011

HSD17B11 (UniProt Q8NBQ5)
inactive: ibrutinib -0.047 | [1] 0.027 | ralimetinib 0.033 | [2] -0.034 | [3] 0.008 | [4] -0.024 | [5] 0.029 | [6] -0.012 | [7] -0.042 | [8] -0.011 | vemurafenib 0.021 | [9] -0.023 | barasertib -0.01 | [10] 0.016 | volasertib 0.024 | [11] 0.036 | [12] -0.009 | [13] 0.033 | saracatinib 0.004 | sotrastaurin 0.043

Additional entries:

HMCES (UniProt Q96FZ2)
inactive: ibrutinib -0.026 | [1] -0.017 | ralimetinib -0.015 | [2] -0.05 | [3] 0.016 | [4] 0.01 | [5] -0.047 | [6] 0.005 | [7] 0.082 | [8] 0.003 | vemurafenib 0.127 | [9] -0.012 | barasertib -0.028 | [10] -0.056 | volasertib -0.034 | [11] -0.02 | [12] 0.09 | [13] 0.093 | saracatinib -0.012 | sotrastaurin 0.019

HMMR isoform 3 (UniProt O75330)
inactive: ibrutinib -0.004 | [1] -0.003 | ralimetinib -0.021 | [2] 0.002 | [3] 0 | [4] 0.03 | [5] 0.005 | [6] 0.004 | [7] 0.012 | [8] -0.006 | vemurafenib -0.01 | [9] 0.003 | barasertib 0.005 | [10] 0.035 | volasertib -0.001 | [11] -0.008 | [12] 0.003 | [13] -0.021 | saracatinib 0.008 | sotrastaurin 0.027

HNRNPA0 (UniProt Q13151)
inactive: ibrutinib 0.011 | [1] -0.041 | ralimetinib 0.023 | [2] 0.007 | [3] 0.011 | [4] -0.004 | [5] -0.005 | [6] 0.036 | [7] -0.017 | [8] 0.019 | vemurafenib 0.015 | [9] 0.045 | barasertib -0.057 | [10] 0.025 | volasertib -0.04 | [11] -0.003 | [12] 0.102 | [13] -0.086 | saracatinib 0.101 | sotrastaurin 0.051

HP1BP3 (UniProt Q5SSJ5)
inactive: ibrutinib 0.036 | [1] -0.013 | ralimetinib 0.013 | [2] -0.043 | [3] -0.023 | [4] 0.013 | [5] -0.043 | [6] -0.016 | [7] -0.004 | [8] -0.002 | vemurafenib 0.03 | [9] 0.005 | barasertib 0.028 | [10] 0.015 | volasertib -0.006 | [11] 0.002 | [12] 0.003 | [13] -0.023 | saracatinib 0.016 | sotrastaurin -0.002
